# This is one part of the list.
# Amino acid sequences for entries named in this document (tags omitted). A change or cut given only in a name is not applied to a line headed by its entry.
# UniProt P11388: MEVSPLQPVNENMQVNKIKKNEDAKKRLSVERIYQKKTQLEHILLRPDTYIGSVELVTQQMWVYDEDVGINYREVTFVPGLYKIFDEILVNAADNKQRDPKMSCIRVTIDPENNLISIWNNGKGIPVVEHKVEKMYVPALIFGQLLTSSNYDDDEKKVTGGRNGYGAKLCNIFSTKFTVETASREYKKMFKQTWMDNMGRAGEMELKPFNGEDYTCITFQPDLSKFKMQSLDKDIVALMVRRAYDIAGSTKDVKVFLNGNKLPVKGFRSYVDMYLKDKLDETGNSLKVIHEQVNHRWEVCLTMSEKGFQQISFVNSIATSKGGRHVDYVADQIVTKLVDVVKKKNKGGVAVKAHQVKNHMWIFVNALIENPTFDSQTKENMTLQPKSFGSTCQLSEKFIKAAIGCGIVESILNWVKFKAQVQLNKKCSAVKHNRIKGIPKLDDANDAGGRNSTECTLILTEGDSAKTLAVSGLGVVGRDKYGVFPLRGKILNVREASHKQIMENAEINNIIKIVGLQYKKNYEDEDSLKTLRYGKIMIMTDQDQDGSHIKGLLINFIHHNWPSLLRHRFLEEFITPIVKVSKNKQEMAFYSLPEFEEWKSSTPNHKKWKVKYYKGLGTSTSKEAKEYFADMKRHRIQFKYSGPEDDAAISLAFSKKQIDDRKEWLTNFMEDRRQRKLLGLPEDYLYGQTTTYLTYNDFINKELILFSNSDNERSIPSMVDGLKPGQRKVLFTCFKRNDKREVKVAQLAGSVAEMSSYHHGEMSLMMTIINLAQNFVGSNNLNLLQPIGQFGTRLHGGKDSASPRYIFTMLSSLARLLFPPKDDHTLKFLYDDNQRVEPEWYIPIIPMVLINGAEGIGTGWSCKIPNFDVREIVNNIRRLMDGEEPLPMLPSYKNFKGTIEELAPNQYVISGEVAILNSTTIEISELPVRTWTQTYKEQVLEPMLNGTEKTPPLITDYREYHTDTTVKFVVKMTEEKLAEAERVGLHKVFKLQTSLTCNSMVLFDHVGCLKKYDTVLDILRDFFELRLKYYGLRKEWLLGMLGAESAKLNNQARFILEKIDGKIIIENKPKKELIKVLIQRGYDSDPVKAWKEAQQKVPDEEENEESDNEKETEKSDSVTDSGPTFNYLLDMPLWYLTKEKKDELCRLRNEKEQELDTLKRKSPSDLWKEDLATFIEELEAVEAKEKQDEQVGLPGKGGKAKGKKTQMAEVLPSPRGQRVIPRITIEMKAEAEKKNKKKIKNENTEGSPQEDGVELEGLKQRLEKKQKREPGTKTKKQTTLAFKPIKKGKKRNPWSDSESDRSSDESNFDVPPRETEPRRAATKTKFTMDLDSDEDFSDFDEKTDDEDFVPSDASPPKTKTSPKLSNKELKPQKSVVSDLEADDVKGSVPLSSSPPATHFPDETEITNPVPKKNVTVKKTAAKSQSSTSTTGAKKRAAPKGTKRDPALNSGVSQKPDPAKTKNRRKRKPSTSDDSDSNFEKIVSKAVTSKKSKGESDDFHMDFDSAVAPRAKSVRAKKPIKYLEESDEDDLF
# UniProt Q99805: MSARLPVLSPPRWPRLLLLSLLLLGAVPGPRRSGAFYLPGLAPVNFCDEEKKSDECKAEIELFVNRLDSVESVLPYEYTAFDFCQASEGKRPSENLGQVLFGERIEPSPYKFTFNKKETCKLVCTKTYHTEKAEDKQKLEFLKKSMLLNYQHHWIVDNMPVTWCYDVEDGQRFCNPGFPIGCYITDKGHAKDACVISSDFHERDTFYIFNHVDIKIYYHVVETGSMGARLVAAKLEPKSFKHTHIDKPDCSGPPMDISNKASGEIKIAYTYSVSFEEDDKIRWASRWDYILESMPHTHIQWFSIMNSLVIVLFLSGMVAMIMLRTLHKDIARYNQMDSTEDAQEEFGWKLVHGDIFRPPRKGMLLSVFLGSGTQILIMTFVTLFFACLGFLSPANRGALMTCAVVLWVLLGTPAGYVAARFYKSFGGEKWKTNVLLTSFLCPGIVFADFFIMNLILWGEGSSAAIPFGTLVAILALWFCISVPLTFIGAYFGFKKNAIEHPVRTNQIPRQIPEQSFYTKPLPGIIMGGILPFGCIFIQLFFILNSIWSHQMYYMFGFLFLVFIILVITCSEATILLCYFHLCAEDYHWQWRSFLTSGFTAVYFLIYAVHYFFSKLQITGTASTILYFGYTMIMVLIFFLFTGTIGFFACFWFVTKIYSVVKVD
# UniProt Q92544: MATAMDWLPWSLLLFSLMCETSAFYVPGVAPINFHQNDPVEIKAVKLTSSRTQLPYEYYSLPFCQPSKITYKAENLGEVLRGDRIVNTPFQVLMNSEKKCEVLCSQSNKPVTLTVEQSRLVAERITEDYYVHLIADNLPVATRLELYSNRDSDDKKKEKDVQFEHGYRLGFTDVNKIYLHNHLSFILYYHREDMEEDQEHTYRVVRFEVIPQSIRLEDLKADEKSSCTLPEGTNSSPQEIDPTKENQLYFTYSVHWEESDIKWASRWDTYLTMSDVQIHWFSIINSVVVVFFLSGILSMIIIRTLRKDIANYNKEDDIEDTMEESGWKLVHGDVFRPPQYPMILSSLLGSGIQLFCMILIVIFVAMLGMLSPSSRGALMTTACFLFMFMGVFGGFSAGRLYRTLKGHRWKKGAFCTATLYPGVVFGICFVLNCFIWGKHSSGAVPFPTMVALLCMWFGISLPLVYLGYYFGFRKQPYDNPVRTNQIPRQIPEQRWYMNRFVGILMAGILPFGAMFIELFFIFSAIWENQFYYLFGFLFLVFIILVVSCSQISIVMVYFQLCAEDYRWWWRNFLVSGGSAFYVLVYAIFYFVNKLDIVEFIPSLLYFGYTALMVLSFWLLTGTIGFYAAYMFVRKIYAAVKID
# UniProt P11387: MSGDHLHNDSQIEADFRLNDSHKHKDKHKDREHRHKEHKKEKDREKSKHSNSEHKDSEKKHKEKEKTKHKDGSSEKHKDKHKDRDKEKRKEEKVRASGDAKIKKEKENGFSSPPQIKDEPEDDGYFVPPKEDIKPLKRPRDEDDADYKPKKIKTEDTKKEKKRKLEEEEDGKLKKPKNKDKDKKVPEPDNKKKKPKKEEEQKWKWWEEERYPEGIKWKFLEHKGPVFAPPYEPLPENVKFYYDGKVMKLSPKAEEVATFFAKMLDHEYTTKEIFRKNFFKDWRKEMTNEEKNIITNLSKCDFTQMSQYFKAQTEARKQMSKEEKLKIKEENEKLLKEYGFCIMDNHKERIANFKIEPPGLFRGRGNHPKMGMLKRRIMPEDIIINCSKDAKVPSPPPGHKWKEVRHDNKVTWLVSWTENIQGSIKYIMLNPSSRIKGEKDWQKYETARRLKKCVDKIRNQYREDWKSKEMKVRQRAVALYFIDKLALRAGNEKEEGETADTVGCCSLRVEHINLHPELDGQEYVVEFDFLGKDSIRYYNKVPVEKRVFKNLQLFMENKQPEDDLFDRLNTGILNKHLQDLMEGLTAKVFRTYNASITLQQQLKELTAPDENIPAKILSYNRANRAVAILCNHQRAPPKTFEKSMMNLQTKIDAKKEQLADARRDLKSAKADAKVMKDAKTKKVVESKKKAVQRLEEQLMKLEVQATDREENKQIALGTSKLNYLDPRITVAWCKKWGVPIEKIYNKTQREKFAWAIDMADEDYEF
# UniProt O15321, whole entry, looked up: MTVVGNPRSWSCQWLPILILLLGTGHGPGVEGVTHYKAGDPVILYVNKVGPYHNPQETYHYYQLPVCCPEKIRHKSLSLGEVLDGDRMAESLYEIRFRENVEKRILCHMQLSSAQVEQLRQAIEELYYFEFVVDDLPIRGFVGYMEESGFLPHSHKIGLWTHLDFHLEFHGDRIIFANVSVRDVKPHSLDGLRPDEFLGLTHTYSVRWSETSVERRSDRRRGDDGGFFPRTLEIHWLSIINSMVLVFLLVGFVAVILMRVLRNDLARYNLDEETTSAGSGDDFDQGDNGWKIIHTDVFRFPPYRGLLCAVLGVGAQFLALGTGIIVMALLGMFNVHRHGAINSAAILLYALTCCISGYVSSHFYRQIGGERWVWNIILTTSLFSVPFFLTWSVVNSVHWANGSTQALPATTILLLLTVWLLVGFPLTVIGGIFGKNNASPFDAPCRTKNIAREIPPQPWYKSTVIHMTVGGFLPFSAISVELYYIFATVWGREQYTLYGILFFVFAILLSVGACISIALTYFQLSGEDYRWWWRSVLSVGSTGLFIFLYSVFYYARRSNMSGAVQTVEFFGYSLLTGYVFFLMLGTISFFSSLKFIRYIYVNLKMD
# UniProt Q8IUX1: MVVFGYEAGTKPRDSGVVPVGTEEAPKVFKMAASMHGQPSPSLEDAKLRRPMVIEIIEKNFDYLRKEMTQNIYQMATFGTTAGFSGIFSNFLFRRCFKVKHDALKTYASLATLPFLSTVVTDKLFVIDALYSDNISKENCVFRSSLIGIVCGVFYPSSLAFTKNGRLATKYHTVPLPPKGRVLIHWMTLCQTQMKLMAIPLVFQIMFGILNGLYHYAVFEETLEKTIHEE
# UniProt Q7Z7H5: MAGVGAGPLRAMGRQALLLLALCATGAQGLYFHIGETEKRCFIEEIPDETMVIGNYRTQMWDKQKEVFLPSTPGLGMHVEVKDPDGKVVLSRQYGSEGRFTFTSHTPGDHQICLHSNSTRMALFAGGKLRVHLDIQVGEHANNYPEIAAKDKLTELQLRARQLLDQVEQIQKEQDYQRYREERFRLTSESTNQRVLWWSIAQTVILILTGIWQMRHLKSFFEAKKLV
# UniProt Q9NXH8: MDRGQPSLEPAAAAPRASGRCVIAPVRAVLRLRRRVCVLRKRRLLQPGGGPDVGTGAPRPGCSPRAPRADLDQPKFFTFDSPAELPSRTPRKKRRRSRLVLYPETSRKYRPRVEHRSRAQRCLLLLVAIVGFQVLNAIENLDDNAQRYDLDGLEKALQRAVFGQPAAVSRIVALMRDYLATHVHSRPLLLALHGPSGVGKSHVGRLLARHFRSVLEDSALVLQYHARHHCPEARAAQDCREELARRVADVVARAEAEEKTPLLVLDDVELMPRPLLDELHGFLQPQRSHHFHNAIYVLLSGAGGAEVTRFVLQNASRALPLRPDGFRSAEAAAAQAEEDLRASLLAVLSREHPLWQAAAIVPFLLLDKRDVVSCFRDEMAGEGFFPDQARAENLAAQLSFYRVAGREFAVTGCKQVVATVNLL
# UniProt Q86WV6: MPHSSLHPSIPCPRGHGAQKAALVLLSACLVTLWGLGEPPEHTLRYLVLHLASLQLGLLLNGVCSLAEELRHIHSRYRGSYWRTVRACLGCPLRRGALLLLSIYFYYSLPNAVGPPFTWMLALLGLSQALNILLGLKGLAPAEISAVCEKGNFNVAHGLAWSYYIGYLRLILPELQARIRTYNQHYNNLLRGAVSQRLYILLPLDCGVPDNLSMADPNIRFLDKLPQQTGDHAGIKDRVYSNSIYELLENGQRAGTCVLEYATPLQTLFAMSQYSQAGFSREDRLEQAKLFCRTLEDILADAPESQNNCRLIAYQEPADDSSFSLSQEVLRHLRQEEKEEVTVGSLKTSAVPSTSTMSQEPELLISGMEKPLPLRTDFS
# UniProt Q8NFQ8: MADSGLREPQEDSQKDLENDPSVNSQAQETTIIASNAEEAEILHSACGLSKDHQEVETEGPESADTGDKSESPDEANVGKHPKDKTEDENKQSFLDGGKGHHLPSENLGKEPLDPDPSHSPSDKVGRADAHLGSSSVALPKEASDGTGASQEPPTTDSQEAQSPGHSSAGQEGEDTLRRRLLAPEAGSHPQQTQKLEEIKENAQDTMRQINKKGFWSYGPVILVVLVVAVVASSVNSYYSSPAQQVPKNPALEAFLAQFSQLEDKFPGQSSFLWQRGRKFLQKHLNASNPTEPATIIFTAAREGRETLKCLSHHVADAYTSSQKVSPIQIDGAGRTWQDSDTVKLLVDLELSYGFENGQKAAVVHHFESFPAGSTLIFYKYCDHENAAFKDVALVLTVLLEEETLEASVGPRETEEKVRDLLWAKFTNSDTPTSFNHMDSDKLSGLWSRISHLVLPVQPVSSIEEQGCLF
# UniProt O94826, whole entry, looked up: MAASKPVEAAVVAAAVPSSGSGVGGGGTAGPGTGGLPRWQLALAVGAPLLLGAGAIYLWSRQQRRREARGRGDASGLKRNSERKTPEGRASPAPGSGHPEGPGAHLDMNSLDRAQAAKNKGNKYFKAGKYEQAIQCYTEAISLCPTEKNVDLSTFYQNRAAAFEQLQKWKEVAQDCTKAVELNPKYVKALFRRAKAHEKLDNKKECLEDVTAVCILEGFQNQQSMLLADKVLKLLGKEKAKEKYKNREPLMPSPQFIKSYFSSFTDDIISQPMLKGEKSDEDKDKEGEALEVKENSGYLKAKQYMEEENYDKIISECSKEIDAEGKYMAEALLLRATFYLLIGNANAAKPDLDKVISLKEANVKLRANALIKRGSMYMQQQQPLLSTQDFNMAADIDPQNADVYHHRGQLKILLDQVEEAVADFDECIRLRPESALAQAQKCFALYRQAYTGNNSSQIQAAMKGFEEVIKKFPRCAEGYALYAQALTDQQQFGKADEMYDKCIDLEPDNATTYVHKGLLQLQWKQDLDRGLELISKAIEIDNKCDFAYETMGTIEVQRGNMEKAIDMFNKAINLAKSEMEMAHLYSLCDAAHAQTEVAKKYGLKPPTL
# Compound: CC1Cc2ccccc2N1C(=O)C1CCCN(C1)C(=O)CCl (mixture of isomers) [TRIM25 ligand 11 (diastereomer mixture)]
# Experiment: probe-labelled cysteine peptide fold change vs DMSO (competition) (log2 fold change); higher = less target engagement (more negative = stronger competition)
# Settings: THP-1, incubation time: 4 h
# 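Note: competitive chemoproteomic profiling in live THP-1 cells with an iodoacetamide desthiobiotin (IA-DTB) probe, comparing probe-labelled peptide intensities in compound-treated cells against DMSO-treated controls.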
Target,probe-labelled cysteine peptide fold change (10 µM),probe-labelled cysteine peptide fold change (50 µM)
TOP2A_P11388_733_KVLFTCFK (UniProt P11388),-0.276,-0.314
TMX2_Q9Y320_186_YNCTGLNFGK (UniProt Q9Y320),0.0602,0.116
TOX4_O94842_577_SGCENPPIVSK (UniProt O94842),0.096,-0.172
TM9SF2_Q99805_194_DACVISSDFHER (UniProt Q99805),0.187,0.0277
TM9SF4_Q92544_100+104_KCEVLCSQSNKPVTLTVEQSR (UniProt Q92544),-0.00665,-0.296
TLN1_Q9Y490_956_ASAGPQPLLVQSCK (UniProt Q9Y490),-0.192,-0.195
TOP1_P11387_505_AGNEKEEGETADTVGCCSLR (UniProt P11387),-0.344,-0.338
TNPO2_O14787_789_LGYVCPQEVAPMLQQFIR (UniProt O14787),0.209,0.122
TLR2_O60603_564_VLIDWPANYLCDSPSHVR (UniProt O60603),0.223,0.0228
TMPO_P42167_363_EMFPYEASTPTGISASCR (UniProt P42167),-0.17,-0.148
TONSL_Q96HA7_596_FLLDHGAAVDDPGGQGCEGITPLHDALNCGHFEVAELLLER (UniProt Q96HA7),0.33,0.196
TM9SF1_O15321_68_VGPYHNPQETYHYYQLPVCCPEK (UniProt O15321),0.0232,-0.197
TOP1_P11387_386_RIMPEDIIINCSK (UniProt P11387),-0.0617,-0.0196
TM9SF4_Q92544_227_SSCTLPEGTNSSPQEIDPTK (UniProt Q92544),0.304,-0.149
TMEM126B_Q8IUX1_151_SSLIGIVCGVFYPSSLAFTK (UniProt Q8IUX1),0.0309,-0.126
TM9SF1_O15321_107_ILCHMQLSSAQVEQLR (UniProt O15321),-0.101,-0.0899
TMOD3_Q9NYL9_231_CFSLAATR (UniProt Q9NYL9),-0.00399,0.00779
TNPO1_Q92973_142+153_LCSLLDSEDYNTCEGAFGALQK (UniProt Q92973),-0.174,-0.167

# Looked up above:
# probe-labelled cysteine peptide fold change (50 µM) with TMEM126B_Q8IUX1_151_SSLIGIVCGVFYPSSLAFTK (UniProt Q8IUX1) reads -0.126
# probe-labelled cysteine peptide fold change (50 µM) with TM9SF2_Q99805_194_DACVISSDFHER (UniProt Q99805) reads 0.0277

# Next part:

Target,probe-labelled cysteine peptide fold change (10 µM),probe-labelled cysteine peptide fold change (50 µM)
TOPBP1_Q92547_1099_SGCNSASSTPDSTR (UniProt Q92547),-0.0617,-0.174
TONSL_Q96HA7_1167_LQACGFGPSFFLSHQTALGSAFQDAEHLK (UniProt Q96HA7),0.0193,-0.000688
TMED4_Q7Z7H5_41_CFIEEIPDETMVIGNYR (UniProt Q7Z7H5),0.0888,0.283
TOR4A_Q9NXH8_374_DVVSCFRDEMAGEGFFPDQAR (UniProt Q9NXH8),0.0221,0.147
TOP2B_Q02880_271_RAYDLAGSCR (UniProt Q02880),-0.0934,0.0553
TONSL_Q96HA7_66_ADDPLGCAVAHR (UniProt Q96HA7),-0.0555,0.0509
TNPO3_Q9Y5L0_303_IFTELCETFLEK (UniProt Q9Y5L0),0.0814,0.0392
TMEM173_Q86WV6_12_PHSSLHPSIPCPR (UniProt Q86WV6),0.0164,-0.104
TNKS1BP1_Q9C0C2_1373_EHGVGGVSQCPEPGLR (UniProt Q9C0C2),0.0273,-0.165
TOMM34_Q15785_74_DCTSALALVPFSIK (UniProt Q15785),-0.0714,-0.0676
TM9SF1_O15321_67_VGPYHNPQETYHYYQLPVCCPEK (UniProt O15321),-0.0619,0.0845
TMEM104_Q8NE00_455_DTQLAFGCGVSNK (UniProt Q8NE00),0.0334,-0.0938
TMTC3_Q6ZXV5_794_CLLETLALAPHEEYIQR (UniProt Q6ZXV5),0.122,0.113
TOR1AIP2_Q8NFQ8_310_CLSHHVADAYTSSQK (UniProt Q8NFQ8),0.143,0.216
TMEM147_Q9BVK8_116_CIPLWVGAR (UniProt Q9BVK8),0.0725,0.193
TOMM70_O94826_502_CIDLEPDNATTYVHK (UniProt O94826),0.000578,0.0185
TOP2A_P11388_216_AGEMELKPFNGEDYTCITFQPDLSK (UniProt P11388),0.146,0.192
TOP3B_O95985_118_GCDYIVLWLDCDK (UniProt O95985),0.298,0.178

# Source: the supplement of paper PMC12067093, “Discovery and optimisation of a covalent ligand for TRIM25 and its application to targeted protein ubiquitination” (Chemical Science, 2025)
